Laboratory results taken from paper PMC6449973.
No constants are given. Whether binding was seen depends on the method and setting. Binding seen in cells or lysates may run through a third protein. Some results given as binding are weak or reduced against the parent protein; the word gives no strength.

Columns and labels:
[1] = molecular target: connexin 32 (human (endogenous in HepG2)) (UniProt P08034); test: co-IP; HepG2-Vector and HepG2-shCx32 cell lysates; anti-Cx32, anti-p-EGFR or anti-Src antibody (2 ug, 4 °C, 4 h), Protein G Plus/Protein A agarose overnight at 4 °C, 5 washes with lysis buffer; nonspecific IgG as negative control; western blot
[2] = molecular target: connexin 32, stably overexpressed in SMMC-7721 cells (SMMC-Cx32) (UniProt P08034); test: co-IP; SMMC-Vector and SMMC-Cx32 (stable Cx32 overexpression) cell lysates; anti-Cx32, anti-p-EGFR or anti-Src antibody (2 ug, 4 °C, 4 h), Protein G Plus/Protein A agarose overnight at 4 °C, 5 washes with lysis buffer; nonspecific IgG as negative control; western blot

In the case of “phospho-EGFR (epidermal growth factor receptor phosphorylated at Tyr845) (from UniProt P00533 25-1210)”, the binding [1] was “binds” and the binding [2] was “binds”.
